PubChem BioAssay AID686938 – Drosophila RNAi Screening Center | 2013
In all, the deposit lists about 23,000 reagents; shown is a random part of those with a known target gene and a result. In the full data, 75 (0.33%) are marked active. 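Raw plate signals without normalisation; calls rest on plate z-scores that were not deposited; ratio present for only 364 wells.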 Unmarked entries are inactive. The numbers tell different reagents against one gene apart. The record does not give: the dose of the treatment.

- Purpose: 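Fly genes required for calcium entry once internal stores are emptied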 (primary screen)
- Cells: Drosophila S2R+ cells
- Reagent: long dsRNA against Drosophila genes, about 0.25 µg dsRNA per well, roughly 10,000 cells
- Time to read-out: 5 days of knock-down before the calcium assay
- Treatment: thapsigargin (SERCA pump blocker) to empty calcium stores; entry signal taken 4 min after adding it
- Read-out: 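Per-well fluo-4 fluorescence in two replicates, unnormalised, measured in resting cells and 4 min after store depletion by the SERCA blocker thapsigargin; ratio of the two present in few wells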
- Direction: calcium entry signal: higher = stronger calcium signal after store depletion; resting calcium signal: higher = higher resting calcium signal
- Hit rule: 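Called when the plate z-score of the entry-to-rest ratio, mean of duplicates, falls below −3; wells with low overall dye signal (Fmax z below −2) or more than five off-targets excluded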
- Meaning of the calls: active = strongly reduced calcium entry; inactive = no strong reduction

Rbp4 (RNA-binding protein 4) gave calcium entry signal, replicate 1 (fluorescence units) = 3.82e7; calcium entry signal, replicate 2 (fluorescence units) = 6.51e7; resting calcium signal, replicate 1 (fluorescence units) = 1.78e7; resting calcium signal, replicate 2 (fluorescence units) = 6.97e7. Knock-down of Ssl2 (Strictosidine synthase-like 2) #1 resulted in: calcium entry signal, replicate 1 (fluorescence units) = 3.84e7; calcium entry signal, replicate 2 (fluorescence units) = 5.21e7; resting calcium signal, replicate 1 (fluorescence units) = 1.96e7; resting calcium signal, replicate 2 (fluorescence units) = 2.28e7. For Ssl2 (Strictosidine synthase-like 2) #2, the entry reads calcium entry signal, replicate 1 (fluorescence units) = 3.94e7; calcium entry signal, replicate 2 (fluorescence units) = 4.60e7; resting calcium signal, replicate 1 (fluorescence units) = 1.86e7; resting calcium signal, replicate 2 (fluorescence units) = 2.16e7. Against CG9962 the deposit lists calcium entry signal, replicate 1 (fluorescence units) = 3.48e7; calcium entry signal, replicate 2 (fluorescence units) = 3.29e7; resting calcium signal, replicate 1 (fluorescence units) = 1.65e7; resting calcium signal, replicate 2 (fluorescence units) = 1.59e7. With knock-down of ZIPIC (Zinc-finger protein interacting with CP190) the results were calcium entry signal, replicate 1 (fluorescence units) = 3.53e7; calcium entry signal, replicate 2 (fluorescence units) = 5.02e7; resting calcium signal, replicate 1 (fluorescence units) = 1.86e7; resting calcium signal, replicate 2 (fluorescence units) = 2.41e7. mahj (mahjong) scored calcium entry signal, replicate 1 (fluorescence units) = 2.89e7; resting calcium signal, replicate 1 (fluorescence units) = 1.48e7.

After knock-down of r2d2, the screen gave calcium entry signal, replicate 1 (fluorescence units) = 3.71e7; calcium entry signal, replicate 2 (fluorescence units) = 4.74e7; resting calcium signal, replicate 1 (fluorescence units) = 1.58e7; resting calcium signal, replicate 2 (fluorescence units) = 2.00e7. Silencing of lncRNA:CR42859 (long non-coding RNA:CR42859) came out at: calcium entry signal, replicate 1 (fluorescence units) = 1.58e7; calcium entry signal, replicate 2 (fluorescence units) = 2.55e7; resting calcium signal, replicate 1 (fluorescence units) = 8.62e6; resting calcium signal, replicate 2 (fluorescence units) = 1.15e7. Against Slc25A46b, the values are calcium entry signal, replicate 1 (fluorescence units) = 4.95e7; calcium entry signal, replicate 2 (fluorescence units) = 4.23e7; resting calcium signal, replicate 1 (fluorescence units) = 2.31e7; resting calcium signal, replicate 2 (fluorescence units) = 2.02e7. Silencing of CG31760 gave: calcium entry signal, replicate 1 (fluorescence units) = 3.81e7; calcium entry signal, replicate 2 (fluorescence units) = 2.61e7; resting calcium signal, replicate 1 (fluorescence units) = 1.79e7; resting calcium signal, replicate 2 (fluorescence units) = 1.23e7. Silencing of CG15021 gave: calcium entry signal, replicate 1 (fluorescence units) = 1.80e7; calcium entry signal, replicate 2 (fluorescence units) = 2.28e7; resting calcium signal, replicate 1 (fluorescence units) = 9.54e6; resting calcium signal, replicate 2 (fluorescence units) = 1.22e7. Depletion of pain (painless) came out at: calcium entry signal, replicate 1 (fluorescence units) = 4.03e7; calcium entry signal, replicate 2 (fluorescence units) = 4.89e7; resting calcium signal, replicate 1 (fluorescence units) = 2.16e7; resting calcium signal, replicate 2 (fluorescence units) = 2.22e7.

In a second layout: results already given.
Gene	reagent no.	calcium entry signal, replicate 1 (fluorescence units)	calcium entry signal, replicate 2 (fluorescence units)	resting calcium signal, replicate 1 (fluorescence units)	resting calcium signal, replicate 2 (fluorescence units)
Slc25A46b	1	4.95e7	4.23e7	2.31e7	2.02e7
CG31760	1	3.81e7	2.61e7	1.79e7	1.23e7
